Measured values taken from PubChem BioAssay AID493236 (Broad Institute, 2011).
Where “and” joins values, the source holds several entries; their conditions need not be identical. Equal entries are not always repeated. Inconclusive means that the source gave no clear call. Such entries were picked first, then a sample of the others. Calls of active or inactive are those of the source.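 How the source made its calls: active means luminescence cut by more than half of the full-inhibition control window in a dose series; inconclusive means no clear call, values can overlap the other calls; inactive means signal rising instead of falling, or the rest.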

These molecules were tested on proteasome chymotrypsin-like activity (human) (assay: inhibition of cellular proteasome chymotrypsin-like cleavage – cell-based, U2OS, luminescence, dry powder, set 4, counter-screen for HIF pathway activator project, dose response (AID 493236)). Conditions: U2OS cells, Proteasome-Glo chymotrypsin luminescence; at 38 µM (top of the series).
Procedure, shortened: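 test system = U2OS cells | schedule = 24 h plating, 4 h compound, 2 h reagent | compound dosing = 8 concentrations, 3-fold steps | controls = MG132 1 µM positive control, DMSO neutral control | measured by = Proteasome-Glo luminescence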

Row | Compound | activity change, negative = inhibition
1 | CC1CN(Cc2ccc(O)c3ncccc23)CC(C)O1 (configuration not stated) | inactive: -10%
2 | O=C(NC1Cc2ccccc2C1)c1cc(-c2ccccc2)on1 | inconclusive: -30.7%
3 | c1ccc(-c2nnc(Nc3nc(-c4ccccn4)nnc3-c3ccccc3)s2)cc1 | inconclusive: 10.2%
4 | c1ccc(-c2cnc(Nc3nc(-c4ccccn4)nnc3-c3ccccc3)s2)cc1 | inconclusive: 9.71%
5 | O=C(NCCN1CCCCC1)c1cc(-c2ccccc2)on1 | inconclusive: 10.7%
6 | O=C(c1cc(-c2ccccc2)on1)N1CCC(N2CCOCC2)CC1 | inactive: 3.6%
7 | CC(Nc1nc(-c2ccccn2)nnc1-c1ccccc1)c1ccccc1 (configuration not stated) | inconclusive: -3.87%
8 | Cn1c(-c2ccccc2)cnc1Nc1nc(-c2ccccn2)nnc1-c1ccccc1 | inconclusive: 6.15%
9 | CC(C)(C)CCNc1nc(-c2ccccn2)nnc1-c1ccccc1 | inactive: -2.25% and inconclusive: -2.84%
10 | Oc1ccc(CN2CCc3ccccc3C2)c2cccnc12 | inactive: -3.37% and inactive: -8.14%
11 | c1ccc(-c2nnc(-c3ccccn3)nc2NCCCN2CCOCC2)cc1 | inconclusive: 12.3%
12 | O=C(Nc1nnc(-c2ccccc2)s1)c1cc(-c2ccccc2)on1 | inconclusive: -4.83%
13 | O=C(Nc1cnc2ccccc2c1)c1cc(-c2ccccc2)on1 | inconclusive: -9.73%
14 | O=C(Nc1nc2ccccc2s1)c1cc(-c2ccccc2)on1 | inconclusive: -6.6%
15 | O=C(NCCN1CCOCC1)c1cc(-c2ccccc2)on1 | inactive: -6.96%
16 | c1ccc(CNc2nc(-c3ccccn3)nnc2-c2ccccc2)cc1 | inconclusive: -17.8%

Row | Compound | activity change, negative = inhibition
17 | CCCCNC(=O)c1cc(-c2ccccc2)on1 | inactive: 0.305%
18 | c1ccc(-c2nnc(-c3ccccn3)nc2Nc2nc3ccccc3s2)cc1 | inconclusive: -7.59%
19 | O=C(NCCCO)c1cc(-c2ccccc2)on1 | inactive: 0.054%
20 | CN(C)CCNC(=O)c1cc(-c2ccccc2)on1 | inconclusive: 26.4%
21 | c1ccc(-c2nnc(-c3ccccn3)nc2NCc2cccnc2)cc1 | inconclusive: -11%
22 | O=C(Nc1nc(-c2ccccc2)cs1)c1cc(-c2ccccc2)on1 | inconclusive: 3.43%
23 | O=C(NCC1CCCCC1)c1cc(-c2ccccc2)on1 | inconclusive: -29.6%
24 | c1ccc(-c2nnc(-c3ccccn3)nc2NCCN2CCOCC2)cc1 | inactive: -6.63%
25 | CN1CCN(c2nc(-c3ccccn3)nnc2-c2ccccc2)CC1 | inconclusive: -4.17%
26 | O=C(c1cc(-c2ccccc2)on1)N1CCc2cccnc21 | inconclusive: -8.58%
27 | CC(C)(C)OC(=O)N1CCN(Cc2ccc(O)c3ncccc23)CC1 | inconclusive: -9.04%
28 | c1ccc(-c2nnc(-c3ccccn3)nc2N2CCN(c3ccncc3)CC2)cc1 | inconclusive: -6.19%
29 | O=C(c1cc(-c2ccccc2)on1)N1CCC(N2CCCC2)CC1 | inconclusive: -4.6%
30 | CN1CCN(C(=O)c2cc(-c3ccccc3)on2)CC1 | inactive: -0.104%
31 | COc1ccc(CNc2nc(-c3ccccn3)nnc2-c2ccccc2)cc1 | inactive: -0.602%
32 | Clc1cccc(CNc2nc(-c3ccccn3)nnc2-c2ccccc2)c1 | inactive: -1.26%

In a second layout: results already given.

| Row | Compound | activity change, negative = inhibition |
| --- | --- | --- |
| 22 | O=C(Nc1nc(-c2ccccc2)cs1)c1cc(-c2ccccc2)on1 | inconclusive: 3.43% |
| 23 | O=C(NCC1CCCCC1)c1cc(-c2ccccc2)on1 | inconclusive: -29.6% |
| 27 | CC(C)(C)OC(=O)N1CCN(Cc2ccc(O)c3ncccc23)CC1 | inconclusive: -9.04% |
| 28 | c1ccc(-c2nnc(-c3ccccn3)nc2N2CCN(c3ccncc3)CC2)cc1 | inconclusive: -6.19% |
| 29 | O=C(c1cc(-c2ccccc2)on1)N1CCC(N2CCCC2)CC1 | inconclusive: -4.6% |
| 30 | CN1CCN(C(=O)c2cc(-c3ccccc3)on2)CC1 | inactive: -0.104% |
